± gives the standard deviation of the averaged measurements. Values are relative to the signal before dosing, not to a vehicle control; the signal also falls without drug.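 Fibroblast labels name human fibroblasts: mostly primary ones from tissues such as uterus (C12385, HUF), lung (H6013), bone (Hs27A), adrenal (HADF) and skin (WS1), plus mammary HMF and breast cancer-associated Hs343T. The cancer cells are basal-like or mesenchymal-like triple-negative breast cancer lines. The paper calls a changed response a hit when it shifts by more than 3x the replicate standard deviation. The tissue of the other fibroblasts is not given here.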
Test system: MDAMB436
Assay: relative JC-1 red fluorescence (viability) vs pre-drug, coculture with fibroblast (fraction); higher = more viable cancer cells
Details: 100 µM
Experimental: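 JC-1 labelled TNBC cells cocultured 1:1 (1,500 cells each) with CellTrace Violet stained primary or stromal fibroblasts in 384-well plates in FluoroBrite medium, treated with one of 42 anticancer drugs at 0.1, 1, 10 or 100 uM. JC-1 red fluorescence (mitochondrial integrity in cancer cells only) was read by plate reader every 8 h for 72 h. Values are normalised to each well's pre-drug value. The stock of one drug was tenfold lower, so its dose labels may be too high.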

## CO[C@H]1C[C@@H]2CC[C@@H](C)[C@@](O)(O2)C(=O)C(=O)N2CCCC[C@H]2C(=O)O[C@H]([C@H](C)C[C@@H]2CC[C@@H](O)[C@H](OC)C2)CC(=O)[C@H](C)/C=C(\C)[C@@H](O)[C@@H](OC)C(=O)[C@H](C)C[C@H](C)/C=C/C=C/C=C/1C [Rapamycin]
8 h, coculture fibroblast: C12385
  relative JC-1 red fluorescence: 0.8626 ± 0.0039
8 h, coculture fibroblast: H6013
  relative JC-1 red fluorescence: 0.838 ± 0.0086
8 h, coculture fibroblast: H6019
  relative JC-1 red fluorescence: 0.9324 ± 0.0077
8 h, coculture fibroblast: H6076
  relative JC-1 red fluorescence: 0.84 ± 0.019
8 h, coculture fibroblast: H6231
  relative JC-1 red fluorescence: 0.876 ± 0.013
8 h, coculture fibroblast: HADF
  relative JC-1 red fluorescence: 0.841 ± 0.0065
8 h, coculture fibroblast: HCFa
  relative JC-1 red fluorescence: 0.841 ± 0.028
8 h, coculture fibroblast: HCPF
  relative JC-1 red fluorescence: 0.814 ± 0.14
8 h, coculture fibroblast: HHSteC
  relative JC-1 red fluorescence: 0.815 ± 0.099
8 h, coculture fibroblast: HMF
  relative JC-1 red fluorescence: 0.7076 ± 0.0018
8 h, coculture fibroblast: HPFa
  relative JC-1 red fluorescence: 0.861 ± 0.02
8 h, coculture fibroblast: HUF
  relative JC-1 red fluorescence: 0.953 ± 0.024
8 h, coculture fibroblast: Hs5
  relative JC-1 red fluorescence: 0.873 ± 0.036
8 h, coculture fibroblast: Hs27A
  relative JC-1 red fluorescence: 0.926 ± 0.016
8 h, coculture fibroblast: Hs343T
  relative JC-1 red fluorescence: 0.947 ± 0.057
8 h, coculture fibroblast: WS1
  relative JC-1 red fluorescence: 0.935 ± 0.02
16 h, coculture fibroblast: C12385
  relative JC-1 red fluorescence: 0.8623 ± 0.0021
16 h, coculture fibroblast: H6013
  relative JC-1 red fluorescence: 0.869 ± 0.023
16 h, coculture fibroblast: H6019
  relative JC-1 red fluorescence: 0.918 ± 0.025
16 h, coculture fibroblast: H6076
  relative JC-1 red fluorescence: 0.894 ± 0.023
16 h, coculture fibroblast: H6231
  relative JC-1 red fluorescence: 0.818 ± 0.11
16 h, coculture fibroblast: HADF
  relative JC-1 red fluorescence: 0.895 ± 0.025
16 h, coculture fibroblast: HCFa
  relative JC-1 red fluorescence: 0.912 ± 0.036
16 h, coculture fibroblast: HCPF
  relative JC-1 red fluorescence: 0.865 ± 0.046
16 h, coculture fibroblast: HHSteC
  relative JC-1 red fluorescence: 0.779 ± 0.062
16 h, coculture fibroblast: HMF
  relative JC-1 red fluorescence: 0.862 ± 0.028
16 h, coculture fibroblast: HPFa
  relative JC-1 red fluorescence: 0.93 ± 0.015
16 h, coculture fibroblast: HUF
  relative JC-1 red fluorescence: 0.947 ± 0.05
16 h, coculture fibroblast: Hs5
  relative JC-1 red fluorescence: 0.787 ± 0.046
16 h, coculture fibroblast: Hs27A
  relative JC-1 red fluorescence: 0.822 ± 0.097
16 h, coculture fibroblast: Hs343T
  relative JC-1 red fluorescence: 0.781 ± 0.043
16 h, coculture fibroblast: WS1
  relative JC-1 red fluorescence: 0.893 ± 0.024
24 h, coculture fibroblast: C12385
  relative JC-1 red fluorescence: 0.754 ± 0.02
24 h, coculture fibroblast: H6013
  relative JC-1 red fluorescence: 0.907 ± 0.051
24 h, coculture fibroblast: H6019
  relative JC-1 red fluorescence: 0.902 ± 0.044
24 h, coculture fibroblast: H6076
  relative JC-1 red fluorescence: 0.808 ± 0.15
24 h, coculture fibroblast: H6231
  relative JC-1 red fluorescence: 0.842 ± 0.037
24 h, coculture fibroblast: HADF
  relative JC-1 red fluorescence: 0.9464 ± 0.0064
24 h, coculture fibroblast: HCFa
  relative JC-1 red fluorescence: 0.923 ± 0.056
24 h, coculture fibroblast: HCPF
  relative JC-1 red fluorescence: 0.85 ± 0.11
24 h, coculture fibroblast: HHSteC
  relative JC-1 red fluorescence: 0.835 ± 0.029
24 h, coculture fibroblast: HMF
  relative JC-1 red fluorescence: 0.9313 ± 0.007
24 h, coculture fibroblast: HPFa
  relative JC-1 red fluorescence: 0.936 ± 0.063
24 h, coculture fibroblast: HUF
  relative JC-1 red fluorescence: 0.868 ± 0.05
24 h, coculture fibroblast: Hs5
  relative JC-1 red fluorescence: 0.862 ± 0.055
24 h, coculture fibroblast: Hs27A
  relative JC-1 red fluorescence: 0.745 ± 0.034
24 h, coculture fibroblast: Hs343T
  relative JC-1 red fluorescence: 0.81 ± 0.16
24 h, coculture fibroblast: WS1
  relative JC-1 red fluorescence: 0.834 ± 0.055
32 h, coculture fibroblast: C12385
  relative JC-1 red fluorescence: 0.643 ± 0.02
32 h, coculture fibroblast: H6013
  relative JC-1 red fluorescence: 0.869 ± 0.032
32 h, coculture fibroblast: H6019
  relative JC-1 red fluorescence: 0.826 ± 0.056
32 h, coculture fibroblast: H6076
  relative JC-1 red fluorescence: 0.893 ± 0.12
32 h, coculture fibroblast: H6231
  relative JC-1 red fluorescence: 0.741 ± 0.017
32 h, coculture fibroblast: HADF
  relative JC-1 red fluorescence: 0.941 ± 0.012
32 h, coculture fibroblast: HCFa
  relative JC-1 red fluorescence: 0.883 ± 0.043
32 h, coculture fibroblast: HCPF
  relative JC-1 red fluorescence: 0.702 ± 0.0097
32 h, coculture fibroblast: HHSteC
  relative JC-1 red fluorescence: 0.837 ± 0.14
32 h, coculture fibroblast: HMF
  relative JC-1 red fluorescence: 0.83 ± 0.083
32 h, coculture fibroblast: HPFa
  relative JC-1 red fluorescence: 0.881 ± 0.039
32 h, coculture fibroblast: HUF
  relative JC-1 red fluorescence: 0.753 ± 0.071
32 h, coculture fibroblast: Hs5
  relative JC-1 red fluorescence: 0.708 ± 0.023
32 h, coculture fibroblast: Hs27A
  relative JC-1 red fluorescence: 0.8569 ± 0.0035
32 h, coculture fibroblast: Hs343T
  relative JC-1 red fluorescence: 0.848 ± 0.051
32 h, coculture fibroblast: WS1
  relative JC-1 red fluorescence: 0.73 ± 0.072
40 h, coculture fibroblast: C12385
  relative JC-1 red fluorescence: 0.55 ± 0.033
40 h, coculture fibroblast: H6013
  relative JC-1 red fluorescence: 0.803 ± 0.041
40 h, coculture fibroblast: H6019
  relative JC-1 red fluorescence: 0.754 ± 0.067
40 h, coculture fibroblast: H6076
  relative JC-1 red fluorescence: 0.812 ± 0.057
40 h, coculture fibroblast: H6231
  relative JC-1 red fluorescence: 0.879 ± 0.064
40 h, coculture fibroblast: HADF
  relative JC-1 red fluorescence: 0.908 ± 0.017
40 h, coculture fibroblast: HCFa
  relative JC-1 red fluorescence: 0.8 ± 0.041
40 h, coculture fibroblast: HCPF
  relative JC-1 red fluorescence: 0.857 ± 0.11

Reference: the supplement of paper PMC6078165
